The data set is described as follows: Example 4: change in rubber hardness and volume of elastomer exposed to base oil. To be noted: seven days at 85° C.

For `CCCCCCCC/C=C\CCCCCCCC(=O)OCC(CC)CCCC` (stereo not drawn) [2-ethylhexyl oleate], the “Hardness, percent change from the initial unaged value” is recorded as -11.0%; the “Volume, percent change from the initial unaged value” turned out to be 10.2%; the “effect on the elastomer, in words” value was “undesirable greater swelling and softening effects”.
